Assay in all cases: binding assay
For data set [1], the target named is platelet derived growth factor (PDGF) (UniProt P01127). The following applies: n positions abasic, alpha-HL nanopore, 1 M KCl, 10 mM Tris pH 7.5, purified recombinant protein, protein details: Biorbyt Cat No. orb80544, single-stranded DNA.
Data set [2] deals with thrombin. The note with it: purified native protein, protein details: Sigma-Aldrich Cat No. T6884, single-stranded DNA.
In data set [3] the target is streptavidin (UniProt P22629). The following applies: alpha-HL nanopore; 5 nM streptavidin, 1 uM probe; 625 mM NaCl, 100 mM HEPES, ferro/ferricyanide pH 8.0; purified native protein; protein details: Sigma Aldrich; single-stranded DNA.
Where [4] appears, read: n positions abasic, alpha-HL nanopore, 1 M KCl, 10 mM Tris pH 7.5, variant of 5A15xA10_TBA (5A15x10A_TBA).
Setting [5] is: n positions abasic, alpha-HL nanopore, same experiment carried out, individual result not shown, variant of 5A15xA10_TBA (5A15x10A_TBA).

The exact form of at least one protein or probe is not confirmed.

As for “AAAAAAAACAGGCTACGGCACGTAGAGCATCACCATGATCCTG [17x8A_PDGF]”, the binding result in data set [1] (also in 20% rabbit blood, shorter binding events than thrombin) was “binds”.
On to “CAGGCTACGGCACGTAGAGCATCACCATGATCCTG [25x_PDGF]”, for which, in data set [1] (concentration dependent 10 nM-1 uM, variant of 17x8A_PDGF), the binding result was “binds”.
As to “AAAAAAAAAAAAAAAGGTTGGTGTGGTTGG [5A15xA10_TBA (5A15x10A_TBA)]”, the binding result in data set [2] (n positions 6-20 abasic, alpha-HL nanopore current block, 1 M KCl, 10 mM Tris pH 7.5, concentration dependent) is listed as “binds”.
For “AAAAAAAAAAAAAGGTTGGTGTGGTTGG [17x13A_TBA]”, the binding result in data set [2] (setting [4]) is “binds”.
For “AAAAAAAAAAAAAAAAAAAGGTTGGTGTGGTTGG [11x19A_TBA]”, the binding result in data set [2] (setting [5]) is reported as “binds”.
For the sequence “AAAAAAAAAAAAAAAGGTTGGTGTGGTTGG [15x15A_TBA]”, the binding result in data set [2] (n positions abasic, alpha-HL nanopore, 1 M KCl, 10 mM (Ex 9: 25 mM) Tris pH 7.5, variant of 5A15xA10_TBA (5A15x10A_TBA)) is on record as “binds”.
For the sequence AAAAAAAAAAAGGTTGGTGTGGTTGG [19x11A_TBA], the binding result in data set [2] (setting [4]) is “binds”.
Consider “AAAAAAAAAAAAAAAAAGGTTGGTGTGGTTGG [13x17A_TBA]”, for which the binding result in data set [2] (setting [5]) was “binds”.
For the sequence AAAAAAAGGTTGGTGTGGTTGG [23x7A_TBA], the binding result in data set [2] (setting [5]) is listed as “binds”.
Consider “CTATACTCCACTTTGCTATTTCTCGGTTCCTTCACGCGCCGATCGCAGGCTGATGAATTGTTT [strep probe 1]”, for which the binding result in data set [3] is recorded as “binds”.
For the sequence AAAAAAAAAGGTTGGTGTGGTTGG [21x9A_TBA], the binding result in data set [2] (setting [5]) is recorded as “binds”.
On to “AAAAAAAAACAAAAAAAAAAAAAAAAAAAAAGGTTGGTGTGGTTGGAAAAAAAAAAAAAAACAAAAAAAAAAAAAAACAAAAAAAAAAAAA [15x15A_TBA_3'CholTEG]”, for which the binding result in data set [2] (3' cholesterol TEG, n positions abasic, alpha-HL nanopore, 100 pM probe, 100 nM thrombin, 1 M KCl, 10 mM Tris pH 7.5, variant of 15x15A_TBA) is “binds”.

For the origin of these results see patent US20230392157.
